Measurements from patent publication US20210115146A1.
These are yes or no findings as the source states them, for the method shown. Each block holds one binder with its values, some of them ahead of it.

Legend:
Assay in all cases: ELISA, antigen coated at 2 µg/mL, anti-cMyc-HRP detection
[1] = molecular target: PD-1.his
[2] = molecular target: VEGF.his
[3] = molecular target: OX40.his
[4] = molecular target: CD22.his
[5] = molecular target: CTLA4.his
[6] = molecular target: CD40
[7] = molecular target: CD147
[8] = molecular target: Factor Eight
[9] = molecular target: CD3.his
[10] = molecular target: FGFR.his

binding [1]: no binding (tested: 10 µg/ml)
binding [2]: no binding (tested: 10 µg/ml)
binding [3]: no binding (tested: 10 µg/ml)
binding [4]: no binding (tested: 10 µg/ml)
binding [5]: no binding (tested: 10 µg/ml)
binding [6]: no binding (tested: 10 µg/ml)
binding [7]: no binding (tested: 10 µg/ml)
binding [8]: no binding (tested: 10 µg/ml)
binding [9]: no binding (tested: 10 µg/ml)
binding [10]: no binding (tested: 10 µg/ml)
B1: W5626-2C10-z5 (VHH) (VHH, not shown: small tags and cut ends)
VHH: AVQLVESGGGLVQPGGSLTLSCAASGRTFSSYAMGWFRQAPGKEREFVAADRWSGGNTRYADSVKGRFTISRDNAKNTLYLQMNSLRAEDTAVYYCAATYLSSDYEWGVPPKAYDYDYWGQGTLVTVSS

binding [1]: no binding (tested: 10 µg/ml)
binding [2]: no binding (tested: 10 µg/ml)
binding [3]: no binding (tested: 10 µg/ml)
binding [4]: no binding (tested: 10 µg/ml)
binding [5]: no binding (tested: 10 µg/ml)
binding [6]: no binding (tested: 10 µg/ml)
binding [7]: no binding (tested: 10 µg/ml)
binding [8]: no binding (tested: 10 µg/ml)
binding [9]: no binding (tested: 10 µg/ml)
binding [10]: no binding (tested: 10 µg/ml)
B2: W5626-2C2-z22 (VHH) (VHH, not shown: small tags and cut ends)
VHH: EVQLVESGGGLVQPGGSLRLSCAASGRTHSNYVMGWFRQAPGQEREFVAGISRTYGNTYYRDSVEGRFTISRDNSKNTLYLQMNSLRAEDTAVYYCAADPTRSEVILTTSHRYVYWGQGTLVTVSS
